Experimental data: patent US8431533B2, “GLP-1 fusion peptides, their production and use” (Biocompatibles UK Ltd., priority 2005, dated 2013)
For some assays here: Part of at least one peptide drawing is inferred or uncertain, most often the ends. Some entries share one result that the patent states for a list of compounds. Ends that are not written are not given here.

By UniProt entry, the sequences of proteins in these tests, tags left out.
UniProt P27487, whole entry: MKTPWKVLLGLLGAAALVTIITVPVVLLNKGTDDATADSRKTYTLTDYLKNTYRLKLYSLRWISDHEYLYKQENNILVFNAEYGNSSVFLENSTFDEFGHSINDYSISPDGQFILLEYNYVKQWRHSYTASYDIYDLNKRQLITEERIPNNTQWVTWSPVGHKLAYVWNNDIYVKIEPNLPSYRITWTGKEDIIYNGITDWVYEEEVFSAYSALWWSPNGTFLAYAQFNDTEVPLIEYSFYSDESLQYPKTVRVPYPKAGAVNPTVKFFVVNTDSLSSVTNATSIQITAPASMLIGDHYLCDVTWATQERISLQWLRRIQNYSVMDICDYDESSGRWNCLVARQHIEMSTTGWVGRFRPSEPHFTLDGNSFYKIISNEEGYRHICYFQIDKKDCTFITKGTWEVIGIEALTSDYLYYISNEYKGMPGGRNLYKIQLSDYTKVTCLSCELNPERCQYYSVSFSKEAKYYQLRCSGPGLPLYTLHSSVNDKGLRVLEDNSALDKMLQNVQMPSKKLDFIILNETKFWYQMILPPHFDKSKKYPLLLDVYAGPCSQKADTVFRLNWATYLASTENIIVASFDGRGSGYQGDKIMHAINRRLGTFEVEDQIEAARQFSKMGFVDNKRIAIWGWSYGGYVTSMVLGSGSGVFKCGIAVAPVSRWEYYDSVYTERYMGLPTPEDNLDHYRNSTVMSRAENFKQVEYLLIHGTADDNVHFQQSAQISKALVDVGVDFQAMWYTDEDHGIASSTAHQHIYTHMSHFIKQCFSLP

Tests used:
DPPIV = DPPIV (Homo sapiens, UniProt P27487); test: In vitro plasma stability of GLP-1 peptides secreted from human cells; format: in vitro ADME; design: human lymphocyte enriched plasma containing dipeptidylpeptidase activity; from tissue; host or cells: human lymphocyte enriched plasma; conditions: human lymphocyte enriched plasma, 37° C., 3 or 4 hours, GLP-1 (Active) ELISA
Description: HEK293 and hTERT-MSC cells were transiently transfected with constructs, encoding the heterologous stromelysin signal sequence, which is linked to GLP-1 variants encoding the following peptides: […]

[1] = test system: diabetic C57BL/KsJ@Rj-db (db/db) mice; test: Dose-efficacy study in diabetic mice; format: in vivo; conditions: for in vivo bioactivity deduced from the ED50 values, better than GLP-1: mouse; for fall in plasma glucose @1 h: 1 hour after single s.c. injection of 1.1-3.0 nmol peptide; for fall in plasma glucose @1 h / fall in plasma glucose @4 h: versus control; for fall in plasma glucose @4 h: 4 hours after single s.c. injection of 1.1-3.0 nmol peptide; for ED50 (plasma glucose): single s.c. dose, percentage decrease of blood glucose at 1 h, sigmoidal fit
Procedure: A sixth group was treated with saline only. 7 animals were treated per group. Blood glucose was determined from tail bleeds directly before, 1 hour and 4 hours after injection. […] For every test substance a graph was prepared with the percentage difference of the blood glucose in relation to the start value for the different concentrations. […] Both models are sigmoidal fit models suitable for dose response evaluation.

[2] = test system: C57BL/KsJ@Rj-db (db/db) mice; test: Long-term treatment of db/db mice; format: in vivo
[3] = supernatant of HEK293 cells (FIG. 4)

Substance	GLP-1 activity maintained (DPPIV; [3])	in vivo bioactivity deduced from the ED50 values, better than GLP-1 [1]	fall in plasma glucose @1 h [1]	fall in plasma glucose @4 h [1]	ED50 (plasma glucose) [1] [μg/mouse]	other results
GLP1(7-37)-IP2-GLP1(7-37) [compound 3]	at least 40%					GLP-1 activity maintained (DPPIV; supernatant of hTERT-MSC cells (FIG. 5)): at least 40%
GLP-1(7-37)-IP2-RR-GLP1(7-37) [CM1]		more than 20 fold				
GLP-1(7-37)-IP2-extended with 11 AA [compound 2]	at least 40%					
HAEGTFTSDVSSYLEGQAAKEFIAWLVKGRGAADFPEEVAIAEELG [CM3-ANA01]		more than 20 fold	62% ± 12%@1 h	18% ± 11%@4 h	0.55	fasted blood glucose level ([2]; 12-hour overnight fast, 18 h after peptide injection): reduced; non fasted blood glucose level compared to control ([2]; 1 h after s.c. peptide injection, 24 nmol/kg): 51%; relative body weight increase ([2]; after a treatment of 122 days, 24 nmol/kg s.c., p<0.001): significantly lower; food consumption ([2]; weekly, 122 day treatment period, compared to the control, p<0.001): significantly lower
HAEGTFTSDVSSYLEGQAAKEFIAWLVKGRGRRDFPEEVAIAEELG [CM3]		more than 20 fold	46% ± 6%@1 h	21% ± 10%@4 h	0.25	decrease of the blood glucose levels after 4 hours (long-term efficacy) ([1]; 4 hours after injection): significant decrease
